Measurements reported in US10647687B2, “Spiropyrazine derivatives as inhibitors of non-apoptotic regulated cell-death” (Helmholtz Zentrum München Deutsches Forschungszentrum für …, priority 2014, dated 2020).
For at least one compound, name, drawing or mass did not settle the structure. Some compounds share one wording; it may come from a single statement.

Tested on: SH-SY5Y cells
Experiment: Specificity: TNF-alpha-induced apoptosis in SH-SY5Y cells (Example B.3)
Assay type: cell-based, human
Settings: compound 1 μM, TNF-alpha 10 ng/mL, FIG. 1
Experimental: SH-SY5Y cells were propagated and seeded in 96-well plates, together with compound N-1, N-2, N-10 of Table 1-N (FIG. 1A), compound O/S-6 or O/S-3 of Table 1-O/S (FIG. 1B), or compound C-12, C-91, or C-205 of Table 1-C (FIG. 1C) (each 1 μM) and TNF-alpha was added (final concentration: 10 ng/mL) to induce apoptosis. The apoptosis and pan-caspase inhibitor z-vad (final concentration: 50 μM) and the necroptosis inhibitor Necrostatin-1 (Nec-1; final concentration: 5 μM) were used for comparison. Control wells were established with vehicle only (DMSO), with and without treatment with TNF-alpha to induce apoptosis. Cells were incubated, and cell survival was detected and quantified. Percentage cell survival after TNF-alpha-induced apoptosis is shown (error bars indicate standard deviation (SD)).
Briefly, SH-SY5Y cells were propagated and seeded in 96-well plates, together with the compound to be tested (1 μM), generally as described in Example B.1, except they were seeded at 1,000 cell/well and instead of BSO, TNF-alpha (Invitrogen) was added to a final concentration of 10 ng/mL to induce apoptosis. The apoptosis and pan-caspase inhibitor Z-VAD-fink (Enzo Life Science; final concentration 50 μM) and the necroptosis inhibitor Necrostatin-1 (Nec-1; Enzo Life Science; final concentration 5 μM) were used for comparison. Control wells were established with vehicle only (DMSO), with and without treatment with TNF-alpha to induce apoptosis. Cells were incubated, and cell survival was detected and quantified as described in Example B.1.

Row | SMILES | Percentage cell survival after TNF-alpha-induced apoptosis
1 | Cc1ccc(CNC2=Nc3ccccc3NC23CCCCC3)cc1 [C-12] | Non-inhibition of apoptotic cell-death
2 | Cc1ccccc1CNC1=Nc2ccccc2NC12CCNCC2 [N-10] | Non-inhibition of apoptotic cell-death
3 | Fc1ccc(CNC2=Nc3ccccc3NC23CCOCC3)cc1 [O/S-6] | Non-inhibition of apoptotic cell-death
